{"source": "patent US20250163488A1", "about": "“CONJUGATION METHOD INVOLVING A TRANSGLUTAMINASE AT THE FC REGION COMPRISING A TRIMMED N-GLYCAN” (ADC THERAPEUTICS SA, priority 2022, published 2025)", "key": {"[1]": {"system": "azide functionalized antibody X", "test": "Conjugation of DBCO-PEG (5 kDa) and DBCO-Cy5 to azide functionalized antibody X samples", "conditions": "for degree of PEGylation: reducing SDS-PAGE, heavy chain of Antibody X"}, "antibody X": {"system": "antibody X", "test": "Dual labelling of antibody X at Q295/N297 with MTGase and galactosyltransferase, MS analysis", "assay_type": "biochemical", "conditions": "for extent of reaction / conversion: dual functionalized antibody X"}}}
{"compound": "CC1(C)C(/C=C/C=C/C=C2/N(CCCCCC(=O)NCCC(=O)N3Cc4ccccc4C#Cc4ccccc43)c3ccc(S(=O)(=O)O)cc3C2(C)C)=[N+](CCCS(=O)(=O)[O-])c2ccc(S(=O)(=O)O)cc21", "note": "[DBCO-Cy5]", "values": [{"measurement": "DoL", "setting": "[1]; EndoS process, MS", "result": 1.9}, {"measurement": "incorporation of the DBCO-Cy5", "setting": "[1]; EndoS process, MS", "result": 94, "unit": "%"}, {"measurement": "DoL", "setting": "[1]; PNGase F process, MS", "result": 1.5}, {"measurement": "efficiency at the DBCO-Cy5 conjugation step", "setting": "[1]; PNGase F process, MS", "result": 74, "unit": "%"}]}
{"compound": "DBCO-AF488", "values": [{"measurement": "extent of reaction / conversion", "setting": "antibody X", "result": "complete conversion"}]}
{"compound": "DBCO-PEG (5 kDa)", "values": [{"measurement": "degree of PEGylation", "setting": "[1]; EndoS process", "result": 1.5}, {"measurement": "degree of PEGylation", "setting": "[1]; PNGase F process", "result": 1.3}]}
{"compound": "TCO-Cy5", "values": [{"measurement": "extent of reaction / conversion", "setting": "antibody X", "result": "complete conversion"}]}
{"compound": "amine-PEG (4u)-methyltetrazine", "values": [{"measurement": "incorporation level", "setting": "antibody X; MTGase mediated conjugation to EndoS trimmed antibody X", "result": 90, "unit": "%"}]}
